Laboratory results published in patent US20050100897A1, “NFAT transcription factors in tumor progression” (priority 2002, published 2005).
“Also recorded” adds a separate entry of the source. At least one compound was matched to its structure with a doubt left.

Experiments:
[1] = test system: MDA-MB-435 β4+-expressing cells (3A7); test: Matrigel chemoinvasion assay, MDA-MB-435 β4+ transfectants; type: cell-based, human; conditions: treatment of α6β4-expressing cells with calcineurin antagonist
[2] = test system: NFAT-1 transcriptional activity; test: NFAT-luc luciferase reporter assay in MDA-MB-435 β4 transfectants; type: cell-based, human

With `C=CC[C@@H]1/C=C(\C)C[C@H](C)C[C@H](OC)[C@H]2O[C@@](O)(C(=O)C(=O)N3CCCC[C@H]3C(=O)O[C@H](/C(C)=C/[C@@H]3CC[C@@H](O)[C@H](OC)C3)[C@H](C)[C@@H](O)CC1=O)[C@H](C)C[C@@H]2OC` [FK506] the “α6β4-dependent carcinoma invasion in the Matrigel assay” value [1] was “Neither cyclosporin A nor FK506 significantly inhibited”, the “inducible NFAT activity (NFAT-luc)” value ([2]; FK506 10 nM for 1 hour prior to PMA+ionomycin (100 nM each) for twenty-four hours) was “quantitatively blocked inducible NFAT activity; also recorded: can be blocked with FK506” and the “high basal NFAT transcriptional activity” value ([2]; unstimulated α6β4-expressing cells) was “did not block the high basal NFAT transcriptional activity”.
